# Screening data, single-dose tests

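Growth of Mycobacterium tuberculosis over 4 days (cholesterol / DPPC medium with tyloxapol); the read-out is not stated. Compounds at 50 µM. Higher reads as more growth inhibition (inferred: compounds with an IC50 in retests scored well above the rest). About 69,000 compounds were tested under these conditions; 0.54% (about 370) showed 50% or more at least once.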

Values are the deposited “Percent Effect”, in %.
The controls that fix the scale are not given in the record; negative values are as filed.
The compounds are a random part of those screened.
Two or more numbers in one place are separate tests of the same structure; such repeats can differ widely.

SMILES: Cc1cc(NC(=O)NCc2cccnc2OC2CCCC2)n(C)n1
Percent Effect: -10.47

SMILES: CN(Cc1nc(Cc2cccc(C(F)(F)F)c2)no1)C1CCOCC1
Percent Effect: 15.2

SMILES: N#Cc1cccc(Oc2ccc(CN3CCCC3)cc2Cl)n1
Percent Effect: -12.67

SMILES: COCC(=O)N1CC[C@@H](O)[C@@H]1Cc1ccccc1
Percent Effect: -2.363

SMILES: COc1ccc(CC(=O)N2CCCCC2Cn2cccn2)cc1 (centres undefined)
Percent Effect: -1.855

SMILES: O=c1c(NCc2ccncc2)c(NCC(O)CN2CCOCC2)c1=O (centres undefined)
Percent Effect: 2.876

SMILES: Cc1ccnc(CC(C)N(C)Cc2ccc3c(c2)OCCO3)c1 (centres undefined)
Percent Effect: 0.1665

SMILES: Cn1cc(Cl)c(C(=O)N2CCC(N3CCc4ccccc4C3)CC2)n1
Percent Effect: 1.526

SMILES: Cc1cc(C)n(CC2CCCN2C(=O)c2c[nH]c3ncccc23)n1 (centres undefined)
Percent Effect: 1.235

SMILES: CC(C)N(Cc1nccn1C)C(=O)c1cc(Cl)c[nH]c1=O
Percent Effect: -30.19

SMILES: CC(=O)N1CCN([C@@H]2CC[C@@H](N(C)C(=O)C3CCCCC3)[C@H]2O)CC1
Percent Effect: -1.323

SMILES: O=C(CSC1=NS(=O)(=O)c2cc(F)ccc2N1)Nc1ccc(Cl)c(Cl)c1
Percent Effect: -25.76

SMILES: CCc1cnc(N2CCN(Cc3ccncc3)CC2)s1
Percent Effect: 19.02

SMILES: CCNC(=O)[C@@H]1C[C@@H](N)CN1Cc1ccc(-c2ccccc2C#N)o1
Percent Effect: -4.368

SMILES: CCOc1ncccc1CNC(=O)N1CCC(n2cncn2)CC1
Percent Effect: -9.176

SMILES: COCCOCC(=O)NCc1ccc(N(C)C)nc1
Percent Effect: -2.073 and -17.54

SMILES: COc1cc(C(C)=O)ccc1OCC(=O)N(CC(C)C#N)C1CC1 (centres undefined)
Percent Effect: -1.779 and 4.958

SMILES: Cc1cc(C)nc(Nc2cc(C)nc(C3CCN(C(=O)CO)C3)n2)n1 (centres undefined)
Percent Effect: -3.141 and 1.557

SMILES: Cc1cc(C)n(CC(C)CNC(=O)[C@@H](C)NC(=O)OC(C)(C)C)n1 (some centres undefined)
Percent Effect: -15.33

SMILES: [H][C@@]12CCN(S(C)(=O)=O)[C@]1([H])CC[C@H](C(=O)NCc1ccco1)O2
Percent Effect: -12.91

SMILES: O=C(CSc1ccncc1)N1CCC2(CC1)c1ccccc1CC2O (centres undefined)
Percent Effect: -9.597 and 6.137

SMILES: COc1ccc2c(c1)CN(Cc1nc3c(cnn3C)c(=O)[nH]1)CC2
Percent Effect: 18.71

SMILES: CCc1c(C)nc(C)nc1N1C[C@@H](CN(CC)CCO)[C@@H](CO)C1
Percent Effect: -8.142 and -21.74

SMILES: Cn1cc(CC2CCN(C(=O)NCc3cccc(C#N)c3)C2)cn1 (centres undefined)
Percent Effect: 1.862

SMILES: COc1ccc(C(=O)NCc2ccc(C(=O)O)o2)cc1
Percent Effect: -14.22

SMILES: Cc1cc(CN(CCO)Cc2cc(Br)ccc2F)no1
Percent Effect: -29.93

SMILES: COCC(=O)N1C[C@@H](c2cccc(OC)c2)[C@@]2(CCCCC(=O)N2)C1
Percent Effect: 0.6157

SMILES: CCCS(=O)(=O)N1CCN(CC(F)(F)F)CC1
Percent Effect: 12.64

SMILES: Cn1ccnc1-c1cccc(NC(=O)NCCN2CCOCC2)c1
Percent Effect: -12.23

SMILES: Cc1nn(C)c(C)c1C1CCCN1Cc1nc(-c2ccccn2)no1 (centres undefined)
Percent Effect: -0.8516

SMILES: CC(C)C(=O)N1CCCC2(CC(C(=O)NCc3cccnc3)=NO2)C1.O=C(O)C(F)(F)F (centres undefined)
Percent Effect: -2.057

SMILES: Cc1noc(C)c1CN(C)Cn1c(=O)oc2ccccc21
Percent Effect: 18.07

SMILES: COCCN(C)C(=O)Nc1ccc2c(ccn2CC(=O)N(C)C)c1
Percent Effect: 2.278

SMILES: COc1c(CNC(c2ccc(F)cc2)c2nccn2C)c(C)nn1C (centres undefined)
Percent Effect: 8.629

SMILES: COc1ccc(Cc2nnc(NC(=O)C3CC34CCC4)s2)cc1OC (centres undefined)
Percent Effect: -19.75 and -8.575

SMILES: O=C(CSc1ccc2c(c1)OCCO2)NS(=O)(=O)c1ccccc1Cl
Percent Effect: -8.799

SMILES: CC1Oc2ccc(S(=O)(=O)NCCCn3ccnc3)cc2NC1=O (centres undefined)
Percent Effect: -4.657

SMILES: CCC(CC)S(=O)(=O)NC(=O)c1ccc2c(c1)ncn2C
Percent Effect: -2.57

SMILES: CCOC(=O)N1CCCn2nc(C(=O)NCCN(C)C)cc2C1
Percent Effect: 4.908 and 3.61

Once more, the final 5:

| SMILES | Percent Effect |
|---|---|
| `COc1ccc(Cc2nnc(NC(=O)C3CC34CCC4)s2)cc1OC` (centres undefined) | -19.75 and -8.575 |
| `O=C(CSc1ccc2c(c1)OCCO2)NS(=O)(=O)c1ccccc1Cl` | -8.799 |
| `CC1Oc2ccc(S(=O)(=O)NCCCn3ccnc3)cc2NC1=O` (centres undefined) | -4.657 |
| `CCC(CC)S(=O)(=O)NC(=O)c1ccc2c(c1)ncn2C` | -2.57 |
| `CCOC(=O)N1CCCn2nc(C(=O)NCCN(C)C)cc2C1` | 4.908 and 3.61 |

Data taken from ChEMBL document CHEMBL3988442, “University of Dundee, Small-Polar-MMV Screening Library” (2021).